The whole screen tested about 580,000 compounds, of which about 6,100 (1.1%) were called active. The inconclusive results got no clear call from the source; some entries with a clear call stand among them for comparison. Calls come from the whole dose curve; as a rule, active = well fitted inhibition curve with a large enough effect; inconclusive = small, poorly fitted or top-dose-only effect, or another doubt; inactive = no such curve, though single readings can be large or run the other way. Potencies of inconclusive entries are doubtful fits and often do not repeat.
Biological target: Polyunsaturated fatty acid lipoxygenase ALOX12 (Homo sapiens) (UniProt P18054)
Experiment: Primary qHTS assay for inhibitors of human arachidonate 12S-lipoxygenase (ALOX12): Round 2
Settings: purified 12hLO, xylenol orange hydroperoxide absorbance; activity change, negative = inhibition: at 108 µM (top of the series) unless noted
How it was run: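 Purified human 12hLO at 150 nM in 25 mM Hepes, 0.01% Triton X-100, pH 7.0, preincubated 15 min at room temperature with compound. Reaction started with 40 uM arachidonic acid, 30 min at room temperature. Hydroperoxide measured by Fe-xylenol orange, 573/405 nm absorbance ratio.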
% is set by controls: 0 for no effect and ±100 for the full control effect; potency is the fitted concentration of half-maximal effect.

Protein sequences, listed by entry. Tags and fused reporters are not part of them.
UniProt P18054, whole entry, looked up: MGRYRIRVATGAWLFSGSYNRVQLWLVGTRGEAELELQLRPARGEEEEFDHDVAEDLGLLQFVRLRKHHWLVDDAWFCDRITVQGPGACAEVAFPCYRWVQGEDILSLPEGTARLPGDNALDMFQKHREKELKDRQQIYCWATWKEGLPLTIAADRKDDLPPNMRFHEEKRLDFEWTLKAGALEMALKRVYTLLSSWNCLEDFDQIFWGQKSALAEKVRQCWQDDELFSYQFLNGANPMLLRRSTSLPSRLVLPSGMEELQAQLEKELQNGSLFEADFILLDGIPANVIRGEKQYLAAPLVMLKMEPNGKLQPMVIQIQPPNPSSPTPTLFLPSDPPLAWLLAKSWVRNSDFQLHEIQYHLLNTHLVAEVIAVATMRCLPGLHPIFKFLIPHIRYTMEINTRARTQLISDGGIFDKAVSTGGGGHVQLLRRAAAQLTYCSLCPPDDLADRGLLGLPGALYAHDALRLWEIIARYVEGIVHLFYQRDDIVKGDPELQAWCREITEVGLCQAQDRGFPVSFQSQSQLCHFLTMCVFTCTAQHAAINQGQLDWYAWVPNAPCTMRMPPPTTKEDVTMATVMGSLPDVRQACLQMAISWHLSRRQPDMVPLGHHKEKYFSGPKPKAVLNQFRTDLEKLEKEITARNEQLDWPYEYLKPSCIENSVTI

Compound	activity change, negative = inhibition	Potency
COC(=O)C1CN(S(=O)(=O)c2ccc(C)cc2)CCN1S(=O)(=O)c1ccc(C)cc1 (stereo not drawn)	inactive: 0%	–
O=C1NC[C@@H](CCCCN2C[C@H](Cc3ccc(O)cc3)N(CCc3ccc(O)cc3)C(=O)C2=O)N(CC2CCCCC2)C1=O	inactive: -16.7%	–
Clc1cc(Cl)c(N/N=C/C(Br)=C/c2ccccc2)c(Cl)c1	–	active: 6.31 µM
COc1ccc(CN2CCc3nnc(CNC(=O)c4cc(C)oc4C)n3CC2)c2ccccc12	–	inconclusive: 112 µM [inhibitor, single point]
Cc1ccccc1NS(=O)(=O)c1ccc2[nH]cc(C(=O)NC(C)c3ccccc3)c(=O)c2c1 (stereo not drawn)	–	inconclusive: 44.7 µM [inhibitor, partial curve]
CC1=C(C(=O)OCc2ccccc2)C(c2cccc(Cl)c2Cl)NC(=O)N1CCCCCC(=O)O (stereo not drawn)	–	inconclusive: 89.1 µM [inhibitor, single point]
CCCN(CCC)CCNC(=O)CS(=O)Cc1nc(-c2ccc(C)cc2)oc1C (stereo not drawn)	–	inconclusive: 0.0794 µM [inhibitor, full curve, poor fit]
Cc1cc(C)c2c(=O)n(CC(=O)N3CCC(N4CCCCC4)CC3)sc2n1	inactive: -0.433%	–
O=C(NCCc1ccc(Cl)cc1)c1nc(-c2cccc(F)c2)c2cnccn12	inactive: 50.9%	–
COc1cc(-c2nc(-c3c(C)noc3C)cc3c2cc(C)n3CCN(C)C)ccn1	–	inconclusive: 70.8 µM [inhibitor, partial curve]
Cc1cc2c(c(=O)o1)C1(C(=O)N(CC(=O)O)c3ccccc31)C(C#N)=C(N)O2 (stereo not drawn)	–	inconclusive: 2.82 µM [inhibitor, full curve, poor fit]
CCCn1c(N)c(C(=O)CSc2nnc(N)s2)c(=O)[nH]c1=O	–	inconclusive: 100 µM [inhibitor, single point]
O=C(Nc1ccc(-c2noc(CCc3ccccc3)n2)cc1)c1cccnc1	inactive: 2.86%	–
COc1ccccc1CCNC(=O)C(=O)NCC(c1cccs1)S(=O)(=O)c1ccc(C)cc1 (stereo not drawn)	inactive: -24.4%	–
COc1ccc(C2C(C(=O)c3ccco3)=C(O)C(=O)N2c2nnc(C)s2)cc1 (stereo not drawn)	–	inconclusive: 39.8 µM [inhibitor, partial curve, poor fit]
NC(=O)C1CCN(C(=O)CCCC(=O)N2CCN(C(=O)c3cc4ccccc4[nH]3)CC2)CC1	–	inconclusive: 50.1 µM [inhibitor, partial curve, poor fit]
CCc1nc2ccc(C(=O)N3CCCC(C(N)=O)C3)cn2c1N(C=O)CC (stereo not drawn)	–	inconclusive: 14.1 µM [inhibitor, partial curve, poor fit]
O=S(=O)(c1ccc(-c2ccon2)s1)N1CCOCC1	–	inconclusive: 112 µM [inhibitor, partial curve, poor fit]
Cc1cc(-c2onc(C)c2C(=O)O)no1	–	inconclusive: 31.6 µM [inhibitor, partial curve, poor fit]
O=C(N/N=C1\CCSc2ccc(F)cc21)c1cccnc1	inactive: 3.41%	–
Cc1cccc(Nc2cc(C)c3c(O)cccc3n2)c1C	–	inconclusive: 44.7 µM [inhibitor, partial curve, poor fit]
COc1cc(/C=C2/N=C(c3ccccc3)OC2=O)c(F)cc1OCc1ccccc1	–	inconclusive: 25.1 µM [inhibitor, partial curve, poor fit]
COc1cc2c(cc1OC)C(=O)C(c1ccc3c(c1)OCO3)CC2 (stereo not drawn)	–	inconclusive: 3.16 µM [inhibitor, full curve]

Some values from above:
Potency with Cc1cccc(Nc2cc(C)c3c(O)cccc3n2)c1C is entered as inconclusive: 44.7 µM [inhibitor, partial curve, poor fit]
Potency with CCCn1c(N)c(C(=O)CSc2nnc(N)s2)c(=O)[nH]c1=O is entered as inconclusive: 100 µM [inhibitor, single point]

Continued.

Compound	activity change, negative = inhibition	Potency
COC(CNC(=O)CS(=O)Cc1nc(-c2ccccc2Cl)oc1C)OC (stereo not drawn)	inactive: -2.75%	–
O=C(O)CNS(=O)(=O)c1cccc(Br)c1	–	inconclusive: 2 µM [inhibitor, full curve, poor fit]
CC1(C)C(=O)NCCN1C(=O)CSc1nccc(-c2ccc(Br)cc2)n1	inactive: -4.33%	–
O=c1c2ccccc2nc(-c2ccccc2Cl)n1O	–	inconclusive: 6.31 µM [inhibitor, full curve]
O=C(CN1CCN(c2ccc(F)cc2)CC1)Nc1ccccc1C(=O)NCCc1ccccc1	inactive: 15.2%	–
CN1C(=O)[C@@H]2C[C@@H](CN2Cc2ccc(OC(F)(F)F)cc2)Oc2ccccc21	–	inconclusive: 1 µM [inhibitor, full curve, poor fit]
O=C(O)C1CCC(C(=O)O)O1 (stereo not drawn)	–	inconclusive: 6.31 µM [inhibitor, full curve, poor fit]
CC(=O)N1CCCC1c1nc2ccccc2n1Cc1cccc(Cl)c1 (stereo not drawn)	inactive: 0%	–
CCC(=O)N1CCN(c2ccccc2NC(=O)COc2cc(C)ccc2C(C)C)CC1	inactive: 16.8%	–
O=C(NCCc1ccccc1)c1cc2n(n1)CC(c1ccc(Cl)cc1)OC2 (stereo not drawn)	–	inconclusive: 28.2 µM [inhibitor, full curve, poor fit]
CCN(CC)c1ccc(Nc2nc(N3CCOCC3)c3ccccc3n2)cc1	–	inconclusive: 50.1 µM [inhibitor, partial curve, poor fit]
CC(C)C[C@@H](CN1CCC[C@H]1CN1C(=O)C(=O)NC[C@@H]1Cc1ccccc1)N1C[C@H](Cc2ccc(O)cc2)N(CC2CCCCCC2)C(=O)C1=O	–	inconclusive: 100 µM [inhibitor, single point]
CCCCCn1c(=O)[nH]c2cc(C(=O)NCc3ccco3)ccc2c1=O	–	inconclusive: 79.4 µM [inhibitor, partial curve, poor fit]
Cc1cccc(Nc2nn3c(=O)c4ccccc4nc3s2)c1	–	inconclusive: 5.62 µM [inhibitor, partial curve, poor fit]
Cc1cc(Cl)ccc1OCC(=O)NNC(=O)c1ccco1	inactive: 430%	–
CCCCn1c(N)c(N(CC)C(=O)c2ccc(N3CCCC3=O)cc2)c(=O)[nH]c1=O	–	inconclusive: 35.5 µM [inhibitor, single point]
CCn1nc(C(=O)Nc2cc(S(=O)(=O)N(C)C)ccc2C)c2ccccc2c1=O	–	inconclusive: 14.1 µM [inhibitor, partial curve, poor fit]
Cn1c(=O)c2c(ncn2CC(=O)NC(=O)NC2CCCC2)n(C)c1=O	inactive: 18.8%	–
Cc1cc(N=Nc2ccccc2C(=O)O)c(C)c(C)c1O	inactive: -5.98%	–
O=C(O)c1cnc(-c2ccccc2)[nH]1	–	inconclusive: 2.82 µM [inhibitor, full curve, poor fit]
COc1ccc(C(=O)CSc2n[nH]c(=O)[nH]c2=O)cc1	–	inconclusive: 31.6 µM [inhibitor, partial curve, poor fit]
CCC(=O)N1CCc2cc(S(=O)(=O)CCC(=O)Nc3ccc(CC)cc3)ccc21	inactive: 0%	–
C/C=C\C(=O)Nc1cccc(C2=NOC3(C2)C[C@@H](C(N)=O)N(C(=O)c2ccccc2)C3)c1 (stereo partly drawn)	inactive: -2.31%	–

Compound	activity change, negative = inhibition	Potency
O=C(O)c1cccc(-c2n[nH]c3c2CC(=O)N(CCOc2ccccc2)C3)c1	–	inconclusive: 56.2 µM [inhibitor, single point]
Cc1ccccc1NC(=O)c1sc2c(c1C)C(c1cccnc1)CC(=O)N2 (stereo not drawn)	–	inconclusive: 79.4 µM [inhibitor, single point]
Cc1ccc(-c2cc(-c3ccc4c(c3)OCO4)c(C#N)c(N)n2)o1	–	inconclusive: 1 µM [inhibitor, full curve, poor fit]
Cc1sc2ncnc(Sc3ccccc3C(=O)Nc3ccccc3Cl)c2c1C	–	inconclusive: 44.7 µM [inhibitor, partial curve]
Cc1ccccc1NC(=S)Nc1cccc2cnccc12	–	inconclusive: 44.7 µM [inhibitor, partial curve, poor fit]
Cc1cccc(NC(=O)c2cc(C)nc3ccccc23)n1	inactive: 26.2%	–
O=S1(=O)CC(N2CCCC2)CN1Cc1cn(Cc2cccc(C(F)(F)F)c2)nn1 (stereo not drawn)	inactive: 11.7%	–
O=C(CSc1nc(-c2ccccc2)nc2cc(=O)[nH]n12)Nc1cccc(C(F)(F)F)c1	inactive: -0.118%	–
COc1ccccc1OCC(=O)NCC1CCCN(C(=O)c2ccccc2C(C)=O)C1 (stereo not drawn)	inactive: 4.7%	–
CCOc1ccccc1NC(=O)Cc1nc(-c2ccccc2)oc1C	inactive: 3.5%	–
Cc1cc(C(=O)COC(=O)c2ccc3c(c2)NC(=O)CS3)c(C)n1CCc1ccc(Cl)cc1	–	inconclusive: 44.7 µM [inhibitor, partial curve, poor fit]
CN(CC1CCOC1)S(=O)(=O)c1ccc2c(c1)CCC2 (stereo not drawn)	inactive: 43%	–
Cn1c(=O)c2c(nc(NCCc3ccccc3)n2CC(=O)O)n(C)c1=O	–	inconclusive: 89.1 µM [inhibitor, single point]
COc1ccc(Br)cc1CNCC1CCCO1 (stereo not drawn)	–	inconclusive: 3.98 µM [inhibitor, full curve, poor fit]
O=c1[nH]c2ccccc2c2nc3ccccn3c12	inactive: -14.9%	–
COC(Cc1nnc(SC)n1-c1ccccc1)OC	–	inconclusive: 0.398 µM [inhibitor, full curve, poor fit]
CCN(CC)C(=O)CN(C)C(=O)CCc1ccccc1	inactive: 10.9%	–
CCOc1ccccc1CN1CCc2nc(N3CCN(c4ccccc4F)CC3)ncc2C1	–	inconclusive: 50.1 µM [inhibitor, partial curve, poor fit]
CCC(=O)Nc1ccc(N2CCN(C(=O)c3ccccc3C)CC2)cc1	–	inconclusive: 56.2 µM [inhibitor, partial curve, poor fit]
CCOc1ccc(N(CC(=O)NC2CCCC2)C(=O)Cn2nnc(-c3ccc(C)o3)n2)cc1	–	inconclusive: 89.1 µM [inhibitor, single point]
Cc1cccc(C(=O)Nc2ccc(OC(=O)c3ccc4c(c3)NC(=O)CCS4)cc2)c1	–	inconclusive: 100 µM [inhibitor, single point]
N#Cc1ccccc1-c1ccc2ncnc(NCc3cccnc3)c2c1	–	inconclusive: 5.62 µM [inhibitor, full curve, poor fit]

Nothing new here: entries from further up.
Compound	activity change, negative = inhibition	Potency
Cn1c(=O)c2c(nc(NCCc3ccccc3)n2CC(=O)O)n(C)c1=O	–	inconclusive: 89.1 µM [inhibitor, single point]
COc1ccc(Br)cc1CNCC1CCCO1 (stereo not drawn)	–	inconclusive: 3.98 µM [inhibitor, full curve, poor fit]

— PubChem BioAssay AID1671190 (National Center for Advancing Translational Sciences (NCATS), 2021)
